Results published in ChEMBL document CHEMBL1140569, “Synthesis and structure-activity relationships of thieno[2,3-b]pyrroles as antagonists of the GnRH receptor” (Bioorg Med Chem Lett, 2007).

Protein sequences, listed by entry. Tags and fused reporters are not part of them.
UniProt P08684, whole entry: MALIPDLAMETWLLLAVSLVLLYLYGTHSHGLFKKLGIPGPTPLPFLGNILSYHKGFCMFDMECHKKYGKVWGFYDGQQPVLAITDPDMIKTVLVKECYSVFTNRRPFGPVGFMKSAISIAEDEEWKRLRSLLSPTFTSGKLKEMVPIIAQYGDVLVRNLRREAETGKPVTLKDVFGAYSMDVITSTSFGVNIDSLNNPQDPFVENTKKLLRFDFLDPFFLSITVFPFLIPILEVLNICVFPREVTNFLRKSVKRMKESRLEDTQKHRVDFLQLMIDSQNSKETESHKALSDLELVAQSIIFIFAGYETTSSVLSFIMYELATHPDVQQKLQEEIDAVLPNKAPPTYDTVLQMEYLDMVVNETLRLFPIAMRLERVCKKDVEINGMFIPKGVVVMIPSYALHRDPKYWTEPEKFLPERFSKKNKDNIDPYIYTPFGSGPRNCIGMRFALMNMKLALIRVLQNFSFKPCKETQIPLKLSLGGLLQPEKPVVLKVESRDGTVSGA

Target: Cytochrome P450 3A4 (Homo sapiens, UniProt P08684)
Test: Inhibition of human CYP3A4

Cc1cc(C)cc(-c2[nH]c3sc(C(C)(C)C(=O)N4C5CCC4CC5)cc3c2CCN2CCN(CC(=O)N3CCOCC3)CC2)c1
IC50: 100 nM
